PubChem BioAssay AID1259424 | University of Nebraska Medical Center | 2018

- Assay: 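Find knockdowns that reproduce the expression shifts seen after KSR1 loss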 (primary screen)
- System: human HCT116 colon cancer cells
- Reagent: siRNA pool against human genes, 50 nM
- Detection: 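Six signature mRNAs by branched-DNA multiplex assay, scaled to two housekeeping genes and non-targeting median, log2; matched to mean KSR1 knockdown profile by Pearson correlation and euclidean distance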
- Reading the numbers: mean correlation with KSR1 profile: higher = expression change more like KSR1 knockdown; mean distance from KSR1 profile: higher = expression change less like KSR1 knockdown
Here is a random part of about 14,000 deposited reagents. 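Higher correlation or smaller distance means closer resemblance to KSR1 loss; control wells, including KSR1 knockdowns, recur on many plates.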 Some reagents were tested in more than one well and are listed for each. Further read-outs or replicates are left out here. No sequences are given here. Not stated in the record: the time to read-out.

What is on record for MYOZ1?
mean correlation with KSR1 profile: -0.677; mean distance from KSR1 profile: 3.64

With NOA1, how do the results read?
mean correlation with KSR1 profile: 0.492; mean distance from KSR1 profile: 1.35

For P2RY2, how do the results read?
mean correlation with KSR1 profile: 0.574; mean distance from KSR1 profile: 2.35

For P2RY2, what was measured?
mean correlation with KSR1 profile: -0.0183; mean distance from KSR1 profile: 2.35

With IKZF2, what was measured?
mean correlation with KSR1 profile: -0.0489; mean distance from KSR1 profile: 2.46

For GPAM, what does the deposit list?
mean correlation with KSR1 profile: 0.0517; mean distance from KSR1 profile: 1.32

With RIOK2, how do the results read?
mean correlation with KSR1 profile: -0.353; mean distance from KSR1 profile: 2.37

With RTL8A, how do the results read?
mean correlation with KSR1 profile: -0.505; mean distance from KSR1 profile: 3.07

For UBAP2, how do the results read?
mean correlation with KSR1 profile: -0.113; mean distance from KSR1 profile: 1.32

With EPB41L3, what does the deposit list?
mean correlation with KSR1 profile: -0.176; mean distance from KSR1 profile: 1.83

With APOL5, what does the deposit list?
mean correlation with KSR1 profile: 0.534; mean distance from KSR1 profile: 1.46

Which result is listed for PTGIR?
mean correlation with KSR1 profile: 0.527; mean distance from KSR1 profile: 2.49

2 entries already listed, sorted by “mean correlation with KSR1 profile”, high to low:
UBAP2 → mean correlation with KSR1 profile = -0.113; mean distance from KSR1 profile = 1.32
EPB41L3 → mean correlation with KSR1 profile = -0.176; mean distance from KSR1 profile = 1.83
